The supplement of paper PMC10849652
This is one part of the list.

Amino acid sequences for entries named in this document (tags omitted). A change or cut given only in a name is not applied to a line headed by its entry.
UniProt Q9NYA4: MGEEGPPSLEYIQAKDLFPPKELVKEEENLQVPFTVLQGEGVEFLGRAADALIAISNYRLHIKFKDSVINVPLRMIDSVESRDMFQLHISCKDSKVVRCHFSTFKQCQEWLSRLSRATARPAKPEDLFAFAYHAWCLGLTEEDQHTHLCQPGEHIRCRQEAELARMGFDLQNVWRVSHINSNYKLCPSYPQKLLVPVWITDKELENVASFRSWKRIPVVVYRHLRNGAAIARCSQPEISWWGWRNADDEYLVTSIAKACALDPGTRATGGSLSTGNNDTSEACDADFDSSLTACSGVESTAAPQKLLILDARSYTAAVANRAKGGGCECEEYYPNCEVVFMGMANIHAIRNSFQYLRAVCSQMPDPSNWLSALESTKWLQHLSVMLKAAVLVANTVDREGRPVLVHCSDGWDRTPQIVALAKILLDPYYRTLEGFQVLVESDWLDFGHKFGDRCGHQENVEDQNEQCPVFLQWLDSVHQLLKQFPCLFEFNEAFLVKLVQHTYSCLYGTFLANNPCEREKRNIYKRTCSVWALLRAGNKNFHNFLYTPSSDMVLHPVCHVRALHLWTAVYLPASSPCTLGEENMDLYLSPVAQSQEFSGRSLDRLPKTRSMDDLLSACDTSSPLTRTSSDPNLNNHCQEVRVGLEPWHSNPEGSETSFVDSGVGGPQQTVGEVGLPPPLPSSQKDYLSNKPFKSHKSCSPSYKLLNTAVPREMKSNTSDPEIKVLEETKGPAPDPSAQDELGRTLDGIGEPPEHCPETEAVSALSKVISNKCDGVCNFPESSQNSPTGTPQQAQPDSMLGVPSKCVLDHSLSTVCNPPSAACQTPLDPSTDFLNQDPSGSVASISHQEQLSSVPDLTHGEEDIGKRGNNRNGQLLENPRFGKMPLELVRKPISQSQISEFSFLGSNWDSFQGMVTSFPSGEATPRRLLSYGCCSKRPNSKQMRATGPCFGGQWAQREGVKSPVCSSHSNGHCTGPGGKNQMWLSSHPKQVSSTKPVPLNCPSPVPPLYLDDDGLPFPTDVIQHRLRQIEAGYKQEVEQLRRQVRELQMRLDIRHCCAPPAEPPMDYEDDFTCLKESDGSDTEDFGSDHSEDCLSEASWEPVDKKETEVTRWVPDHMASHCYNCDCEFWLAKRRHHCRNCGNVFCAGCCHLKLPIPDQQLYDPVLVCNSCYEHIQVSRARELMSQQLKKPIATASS
UniProt Q15800: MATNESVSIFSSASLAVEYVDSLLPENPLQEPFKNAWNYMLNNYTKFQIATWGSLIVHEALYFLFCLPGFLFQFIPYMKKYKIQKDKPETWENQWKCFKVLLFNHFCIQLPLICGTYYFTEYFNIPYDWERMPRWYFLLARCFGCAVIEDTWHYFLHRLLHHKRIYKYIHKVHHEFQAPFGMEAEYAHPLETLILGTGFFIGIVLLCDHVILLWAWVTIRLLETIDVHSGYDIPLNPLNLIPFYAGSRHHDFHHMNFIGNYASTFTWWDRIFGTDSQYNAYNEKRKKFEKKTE
UniProt Q9C0I1: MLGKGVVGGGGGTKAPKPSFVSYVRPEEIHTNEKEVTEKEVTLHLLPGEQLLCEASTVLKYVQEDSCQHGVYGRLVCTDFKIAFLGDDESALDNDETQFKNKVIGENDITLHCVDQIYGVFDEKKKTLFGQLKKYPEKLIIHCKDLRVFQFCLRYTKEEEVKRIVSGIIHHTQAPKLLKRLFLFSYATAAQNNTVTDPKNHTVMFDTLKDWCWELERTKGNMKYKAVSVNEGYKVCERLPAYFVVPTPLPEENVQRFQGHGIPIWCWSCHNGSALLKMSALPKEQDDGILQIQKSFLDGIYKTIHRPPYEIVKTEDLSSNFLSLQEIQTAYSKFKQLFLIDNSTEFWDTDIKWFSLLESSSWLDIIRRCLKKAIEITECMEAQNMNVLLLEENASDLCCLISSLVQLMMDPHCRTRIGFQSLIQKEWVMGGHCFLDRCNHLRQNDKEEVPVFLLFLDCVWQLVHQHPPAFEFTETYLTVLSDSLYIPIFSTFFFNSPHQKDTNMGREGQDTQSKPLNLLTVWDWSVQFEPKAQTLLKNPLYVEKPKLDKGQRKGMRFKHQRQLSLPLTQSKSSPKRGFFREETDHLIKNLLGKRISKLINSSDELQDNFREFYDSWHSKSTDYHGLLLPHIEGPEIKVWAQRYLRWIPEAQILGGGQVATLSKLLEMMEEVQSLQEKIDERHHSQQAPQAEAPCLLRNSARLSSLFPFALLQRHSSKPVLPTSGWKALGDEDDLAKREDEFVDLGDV
UniProt Q9HD23: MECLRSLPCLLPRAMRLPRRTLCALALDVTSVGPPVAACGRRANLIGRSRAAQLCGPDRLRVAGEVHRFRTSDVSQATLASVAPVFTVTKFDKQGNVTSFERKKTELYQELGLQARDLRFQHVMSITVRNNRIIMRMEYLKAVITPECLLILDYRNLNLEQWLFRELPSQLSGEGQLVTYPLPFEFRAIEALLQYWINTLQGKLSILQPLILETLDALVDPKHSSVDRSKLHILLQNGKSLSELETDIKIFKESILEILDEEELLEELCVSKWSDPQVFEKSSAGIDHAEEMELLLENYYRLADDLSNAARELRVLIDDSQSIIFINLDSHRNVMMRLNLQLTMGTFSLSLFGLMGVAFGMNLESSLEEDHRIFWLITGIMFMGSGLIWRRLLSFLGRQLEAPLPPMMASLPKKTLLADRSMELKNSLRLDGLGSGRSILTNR
UniProt P13640: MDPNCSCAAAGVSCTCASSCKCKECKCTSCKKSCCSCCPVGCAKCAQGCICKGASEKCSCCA
UniProt Q9H019: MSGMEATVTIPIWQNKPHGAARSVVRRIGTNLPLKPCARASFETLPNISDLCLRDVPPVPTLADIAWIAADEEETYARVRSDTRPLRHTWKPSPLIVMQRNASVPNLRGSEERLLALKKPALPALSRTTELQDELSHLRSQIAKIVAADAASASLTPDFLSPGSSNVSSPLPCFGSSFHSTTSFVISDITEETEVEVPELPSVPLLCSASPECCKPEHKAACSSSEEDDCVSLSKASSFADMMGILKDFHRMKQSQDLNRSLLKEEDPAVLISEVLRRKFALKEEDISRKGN
UniProt Q15390: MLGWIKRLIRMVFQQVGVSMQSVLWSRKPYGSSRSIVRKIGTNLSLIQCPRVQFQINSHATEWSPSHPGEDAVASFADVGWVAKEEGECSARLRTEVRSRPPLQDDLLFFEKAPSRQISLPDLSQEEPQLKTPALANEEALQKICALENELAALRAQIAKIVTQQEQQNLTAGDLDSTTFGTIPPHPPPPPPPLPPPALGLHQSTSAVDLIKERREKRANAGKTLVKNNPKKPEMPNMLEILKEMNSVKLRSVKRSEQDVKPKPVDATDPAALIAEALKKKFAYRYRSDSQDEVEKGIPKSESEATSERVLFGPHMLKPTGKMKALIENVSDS
UniProt P03928: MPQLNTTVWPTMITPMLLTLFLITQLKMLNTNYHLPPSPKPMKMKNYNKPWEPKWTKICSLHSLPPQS
UniProt P00414, whole entry, looked up: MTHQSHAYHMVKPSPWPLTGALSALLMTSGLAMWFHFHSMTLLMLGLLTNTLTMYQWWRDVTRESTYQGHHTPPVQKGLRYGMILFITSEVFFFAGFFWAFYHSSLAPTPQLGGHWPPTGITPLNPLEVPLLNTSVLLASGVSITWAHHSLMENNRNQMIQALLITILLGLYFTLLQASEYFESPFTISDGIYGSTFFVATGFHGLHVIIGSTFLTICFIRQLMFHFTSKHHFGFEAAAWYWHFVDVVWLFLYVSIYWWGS
UniProt Q9Y3D2: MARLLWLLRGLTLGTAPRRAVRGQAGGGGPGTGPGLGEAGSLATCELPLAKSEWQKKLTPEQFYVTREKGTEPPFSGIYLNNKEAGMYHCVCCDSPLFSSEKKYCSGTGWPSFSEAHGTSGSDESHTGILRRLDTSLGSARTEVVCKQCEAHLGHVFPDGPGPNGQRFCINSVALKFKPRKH
UniProt P26038, whole entry, looked up: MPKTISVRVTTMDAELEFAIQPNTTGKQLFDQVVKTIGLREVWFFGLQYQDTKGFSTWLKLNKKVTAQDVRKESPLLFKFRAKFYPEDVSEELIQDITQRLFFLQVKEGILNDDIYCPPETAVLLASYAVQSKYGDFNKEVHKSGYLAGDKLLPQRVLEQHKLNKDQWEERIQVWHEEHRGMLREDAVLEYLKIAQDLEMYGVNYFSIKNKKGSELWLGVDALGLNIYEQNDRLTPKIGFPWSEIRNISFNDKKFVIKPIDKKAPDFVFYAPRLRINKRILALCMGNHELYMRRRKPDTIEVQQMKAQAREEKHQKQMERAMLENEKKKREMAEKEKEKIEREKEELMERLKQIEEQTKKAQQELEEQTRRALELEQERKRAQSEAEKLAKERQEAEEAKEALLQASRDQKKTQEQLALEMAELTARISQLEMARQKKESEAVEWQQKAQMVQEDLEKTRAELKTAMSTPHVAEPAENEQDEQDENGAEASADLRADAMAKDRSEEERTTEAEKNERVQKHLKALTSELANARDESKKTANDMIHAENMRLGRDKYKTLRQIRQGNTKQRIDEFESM
UniProt Q96E29: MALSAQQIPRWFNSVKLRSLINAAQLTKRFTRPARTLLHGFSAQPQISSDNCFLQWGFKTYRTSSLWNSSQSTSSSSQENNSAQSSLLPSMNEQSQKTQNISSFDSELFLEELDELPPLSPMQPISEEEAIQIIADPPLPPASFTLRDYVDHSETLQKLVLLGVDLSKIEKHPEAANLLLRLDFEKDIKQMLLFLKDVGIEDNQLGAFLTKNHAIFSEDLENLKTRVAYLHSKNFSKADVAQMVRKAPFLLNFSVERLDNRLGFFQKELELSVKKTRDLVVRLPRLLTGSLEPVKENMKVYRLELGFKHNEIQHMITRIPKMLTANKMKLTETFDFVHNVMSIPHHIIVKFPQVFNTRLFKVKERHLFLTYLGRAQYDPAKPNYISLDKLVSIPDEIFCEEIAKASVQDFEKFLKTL
UniProt P82909: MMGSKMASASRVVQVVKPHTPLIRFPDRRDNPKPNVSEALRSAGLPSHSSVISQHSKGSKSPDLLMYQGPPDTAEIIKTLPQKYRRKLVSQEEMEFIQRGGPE
UniProt Q13330: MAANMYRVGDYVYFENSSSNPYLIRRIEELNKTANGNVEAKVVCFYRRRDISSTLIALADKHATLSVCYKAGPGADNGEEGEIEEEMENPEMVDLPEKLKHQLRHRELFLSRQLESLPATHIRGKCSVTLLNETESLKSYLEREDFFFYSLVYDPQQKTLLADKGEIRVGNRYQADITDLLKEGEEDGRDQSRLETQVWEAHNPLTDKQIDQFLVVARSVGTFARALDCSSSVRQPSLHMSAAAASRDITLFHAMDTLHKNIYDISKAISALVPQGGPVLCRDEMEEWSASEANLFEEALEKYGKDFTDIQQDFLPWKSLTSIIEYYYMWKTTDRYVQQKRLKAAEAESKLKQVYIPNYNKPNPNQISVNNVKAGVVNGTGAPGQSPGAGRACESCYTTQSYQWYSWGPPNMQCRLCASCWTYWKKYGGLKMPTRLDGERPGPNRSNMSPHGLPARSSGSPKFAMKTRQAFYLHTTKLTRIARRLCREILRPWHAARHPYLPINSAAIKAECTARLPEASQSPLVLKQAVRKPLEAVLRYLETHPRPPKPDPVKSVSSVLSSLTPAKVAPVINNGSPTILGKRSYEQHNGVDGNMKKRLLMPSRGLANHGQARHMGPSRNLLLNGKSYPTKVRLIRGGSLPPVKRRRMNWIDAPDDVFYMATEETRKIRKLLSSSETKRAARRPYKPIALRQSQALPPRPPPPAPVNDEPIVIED
UniProt Q9NZJ7, whole entry, looked up: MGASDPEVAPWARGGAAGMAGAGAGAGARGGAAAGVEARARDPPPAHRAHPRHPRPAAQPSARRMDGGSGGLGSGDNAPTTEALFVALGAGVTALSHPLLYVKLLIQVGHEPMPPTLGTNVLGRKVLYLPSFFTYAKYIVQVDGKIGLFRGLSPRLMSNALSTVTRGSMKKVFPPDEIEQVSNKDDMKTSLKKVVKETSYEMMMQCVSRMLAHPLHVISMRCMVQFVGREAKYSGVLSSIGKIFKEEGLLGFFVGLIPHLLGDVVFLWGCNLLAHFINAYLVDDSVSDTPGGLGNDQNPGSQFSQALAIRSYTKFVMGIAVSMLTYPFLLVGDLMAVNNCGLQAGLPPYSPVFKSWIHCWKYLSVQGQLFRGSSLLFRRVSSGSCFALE
UniProt Q8N5Y2: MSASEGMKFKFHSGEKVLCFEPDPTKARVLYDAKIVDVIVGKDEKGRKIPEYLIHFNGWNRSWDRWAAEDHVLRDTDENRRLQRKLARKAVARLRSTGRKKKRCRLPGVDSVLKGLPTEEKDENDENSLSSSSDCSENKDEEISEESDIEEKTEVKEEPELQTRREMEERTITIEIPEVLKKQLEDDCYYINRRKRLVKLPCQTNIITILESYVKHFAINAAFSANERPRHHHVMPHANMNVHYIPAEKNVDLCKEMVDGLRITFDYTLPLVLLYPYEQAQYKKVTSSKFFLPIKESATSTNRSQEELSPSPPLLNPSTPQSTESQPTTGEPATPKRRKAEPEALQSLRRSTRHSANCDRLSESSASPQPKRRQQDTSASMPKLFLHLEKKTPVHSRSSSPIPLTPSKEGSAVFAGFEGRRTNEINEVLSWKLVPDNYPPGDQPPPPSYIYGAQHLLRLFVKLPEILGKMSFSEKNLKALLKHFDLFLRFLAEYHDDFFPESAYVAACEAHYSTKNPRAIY

Experiments:
Experiment in all cases: log2 fold change, soluble protein after heating vs DMSO (PISA); higher = thermal stabilisation; K562 lysate, 10 uM; active = over 0.2 and 3.5 SD of the protein, either way, in both replicates (recomputed)
[1] = compound: NCC(=O)Nc1ccc(-n2nc(C(F)(F)F)cc2-c2ccc3c(ccc4ccccc43)c2)cc1
How it was run: (§1)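 A 30 min treatment with 10 μM compound was applied to crude K562 extract at 1 mg/mL protein in PBS pH 7.4 with 1 mM MgCl2. Heating for 3 min spanned 48°C-58°C, after which aliquots were pooled, adjusted to 0.5% NP-40 at 4°C and spun at 21,000xg for 90 min. TMTpro 16plex LC-MS/MS of the supernatant, with channel sums equalised, gave values recorded as log-two fold change in thermal stability against solvent controls, from duplicates.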

[2] = compound: O=C(CCCCCCC(=O)Nc1ccccc1)NO [vorinostat]
How it was run: as §1

[3] = compound: O=C(O)c1ccc2c(c1)nc(Nc1cccc(Cl)c1)c1ccncc12 [silmitasertib]
How it was run: as §1

[4] = compound: O=C1NC(=O)C(c2cnc3ccccn23)=C1c1cn2c3c(cc(F)cc13)CN(C(=O)N1CCCCC1)CC2
How it was run: as §1

[5] = compound: c1cn2cc(-c3ccc4cn[nH]c4c3)nc(Nc3ccc(N4CCOCC4)cc3)c2n1 [entospletinib]
How it was run: as §1

Measured: log2 fold change

MTM1 (UniProt Q13496)
inactive: [1] 0.048 | [2] 0.029 | [3] -0.028 | [4] -0.019 | [5] 0.016

MRPL41 (UniProt Q8IXM3)
inactive: [1] 0.013 | [2] 0.006 | [3] -0.041 | [4] -0.076 | [5] 0.016

MTMR4 (UniProt Q9NYA4)
inactive: [1] -0.291 | [2] 0.016 | [3] -0.115 | [4] 0.054

MRPS6 (UniProt P82932)
inactive: [1] 0.011 | [2] -0.177 | [3] 0.032 | [4] 0.012 | [5] -0.015

MTHFSD isoform 3 (UniProt Q2M296)
inactive: [1] -0.062 | [2] -0.056 | [3] -0.029 | [4] 0

MRPS35 (UniProt P82673)
inactive: [1] 0.05 | [2] -0.114 | [3] 0.065 | [4] -0.032 | [5] 0.05

MTCH2 (UniProt Q9Y6C9)
active: [2] -0.432
inactive: [1] -0.016 | [3] -0.001 | [4] -0.075 | [5] 0.026

MTA3 (UniProt Q9BTC8)
active: [2] -0.278
inactive: [1] 0.021 | [3] -0.017 | [4] -0.021 | [5] 0.012

MRPS10 (UniProt P82664)
inactive: [1] 0.041 | [2] 0.068 | [3] -0.07 | [4] 0.002 | [5] 0.037

MSMO1 (UniProt Q15800)
inactive: [1] -0.04 | [2] 0.024 | [3] -0.025 | [4] -0.005 | [5] -0.042

MTMR12 (UniProt Q9C0I1)
inactive: [1] 0.026 | [2] 0.024 | [3] -0.014 | [4] -0.025 | [5] 0.016

MRPS22 (UniProt P82650)
inactive: [1] 0.046 | [2] -0.029 | [3] 0.01 | [4] -0.04 | [5] -0.016

MTPAP (UniProt Q9NVV4)
inactive: [1] 0.008 | [2] -0.263 | [3] -0.027 | [4] 0.02 | [5] 0.141

MRPL9 (UniProt Q9BYD2)
inactive: [1] 0.044 | [2] -0.073 | [3] 0.018 | [4] -0.028 | [5] -0.02

MRS2 (UniProt Q9HD23)
inactive: [1] -0.081 | [2] 0.043 | [3] 0.006 | [4] -0.047 | [5] -0.025

MRPS28 (UniProt Q9Y2Q9)
inactive: [1] -0.024 | [2] 0.005 | [3] 0.012 | [4] -0.026 | [5] 0.049

MT1G (UniProt P13640)
inactive: [1] -0.118 | [2] -0.595 | [3] 0.155 | [4] -0.212 | [5] 0.06

MTDH (UniProt E5RJU9)
inactive: [1] 0.1 | [2] 0.198 | [3] -0.005 | [4] -0.038 | [5] 0.042

MRTO4 (UniProt Q9UKD2)
inactive: [1] -0.023 | [2] 0.102 | [3] -0.018 | [4] -0.007 | [5] 0.018

MRPL57 (UniProt Q9BQC6)
inactive: [1] -0.066 | [2] 0.028 | [3] -0.013 | [4] -0.018 | [5] -0.019

MTIF3 (UniProt Q9H2K0)
inactive: [1] 0.1 | [2] 0.135 | [3] -0.071

MTHFD2 (UniProt P13995)
inactive: [1] -0.01 | [2] -0.059 | [3] -0.003 | [4] 0.011 | [5] 0.016

MTFR1L (UniProt Q9H019)
inactive: [1] 0.042 | [2] -0.273 | [3] -0.18 | [4] 0.033 | [5] 0.01

MTSS2 (UniProt Q765P7)
inactive: [1] 0.009 | [2] -0.081 | [3] -0.031 | [4] -0.02 | [5] -0.036

MTFR1 (UniProt Q15390)
inactive: [1] -0.01 | [2] -0.014 | [3] -0.016 | [4] 0.011 | [5] 0.018

MT-ND2 (UniProt P03891)
inactive: [1] -0.129 | [2] 0.048 | [3] 0.079 | [4] -0.066 | [5] 0.073

MRPS12 (UniProt O15235)
inactive: [1] -0.005 | [3] -0.011 | [4] -0.013 | [5] -0.046
active: [2] -0.35

MTA2 (UniProt O94776)
active: [2] -0.352
inactive: [1] 0.034 | [3] 0.02 | [4] 0.006 | [5] 0.021

MRPL35 (UniProt Q9NZE8)
inactive: [1] -0.229 | [2] -0.159 | [3] 0.04 | [4] 0.013

MUC1, A0A087WWM1
inactive: [1] 0.03 | [2] 0.031 | [3] 0.014 | [4] 0.001 | [5] -0.011

MT-ATP8 (UniProt P03928)
inactive: [1] 0.056 | [2] 0.155 | [3] -0.026 | [4] 0.08 | [5] -0.009

MSH4 (UniProt O15457)
inactive: [1] -0.007

MT-CO3 (UniProt P00414)
inactive: [1] 0.018

MRPS16 (UniProt Q9Y3D3)
inactive: [1] -0.033 | [2] -0.102 | [3] 0.02 | [4] 0.007 | [5] 0.044

MSRB2 (UniProt Q9Y3D2)
inactive: [1] -0.145 | [2] -0.041 | [3] 0.01 | [4] 0.043 | [5] -0.025

MRPS9 (UniProt P82933)
inactive: [1] 0.071 | [2] -0.087 | [3] 0.054 | [4] 0.02 | [5] -0.02

MRPL52 (UniProt Q86TS9)
inactive: [1] -0.102 | [2] 0.221 | [3] -0.051 | [4] -0.007 | [5] -0.067

MRPS34 (UniProt P82930)
inactive: [1] -0.035 | [2] -0.32 | [3] -0.004 | [4] 0.009 | [5] -0.02

MSN (UniProt P26038)
inactive: [1] 0.005 | [2] 0.125 | [3] -0.004 | [4] -0.004 | [5] 0.009

MT-CO2 (UniProt P00403)
inactive: [1] -0.001 | [2] 0.177 | [3] 0.047 | [4] 0.025 | [5] 0.013

MRPS18C (UniProt Q9Y3D5)
inactive: [1] 0.078 | [2] -0.073 | [3] -0.055 | [4] -0.019 | [5] 0.037

MRPL39 isoform 2 (UniProt Q9NYK5)
inactive: [1] -0.01 | [2] -0.073 | [3] 0.022 | [4] 0.007 | [5] 0

MSANTD2 (UniProt Q6P1R3)
inactive: [1] -0.117 | [2] -0.44 | [3] 0.144 | [4] 0.023 | [5] -0.067

MTIF2 (UniProt P46199)
inactive: [1] -0.01 | [2] -0.176 | [3] 0.008 | [4] -0.05 | [5] 0.005

MTHFD1L (UniProt B7ZM99)
inactive: [1] 0.031 | [3] 0.07 | [4] 0.045 | [5] -0.02
active: [2] -0.408

MRPL53 (UniProt Q96EL3)
inactive: [1] -0.052 | [2] -0.119 | [3] 0.042 | [4] -0.024 | [5] 0.033

MTERF3 (UniProt Q96E29)
inactive: [1] -0.027 | [2] 0 | [3] 0.07 | [4] 0.005 | [5] 0.048

MRPS36 (UniProt P82909)
inactive: [1] 0.018 | [2] 0.196 | [3] -0.077 | [4] 0.004 | [5] -0.034

MTA1 (UniProt Q13330)
inactive: [1] -0.005 | [3] -0.037 | [4] 0.016 | [5] -0.036
active: [2] -0.212

MTCH1 (UniProt Q9NZJ7)
inactive: [1] -0.021 | [2] 0.046 | [3] 0.012 | [4] -0.02 | [5] 0.044

MT-CYB (UniProt P00156)
inactive: [1] -0.064 | [2] 0.158 | [3] 0.031 | [4] 0.118 | [5] 0.174

MRPS18B (UniProt Q9Y676)
inactive: [1] 0.012 | [2] -0.217 | [3] 0.005 | [4] 0.037 | [5] 0.008

MSL3 (UniProt Q8N5Y2)
inactive: [1] 0.026 | [2] -0.025 | [3] 0.027 | [4] -0.007 | [5] 0.039

Copied from above (10 entries):
MRPL39 isoform 2 (UniProt Q9NYK5)
inactive: [1] -0.01 | [2] -0.073 | [3] 0.022 | [4] 0.007 | [5] 0

MSANTD2 (UniProt Q6P1R3)
inactive: [1] -0.117 | [2] -0.44 | [3] 0.144 | [4] 0.023 | [5] -0.067

MTIF2 (UniProt P46199)
inactive: [1] -0.01 | [2] -0.176 | [3] 0.008 | [4] -0.05 | [5] 0.005

MTHFD1L (UniProt B7ZM99)
inactive: [1] 0.031 | [3] 0.07 | [4] 0.045 | [5] -0.02
active: [2] -0.408

MRPL53 (UniProt Q96EL3)
inactive: [1] -0.052 | [2] -0.119 | [3] 0.042 | [4] -0.024 | [5] 0.033

MTERF3 (UniProt Q96E29)
inactive: [1] -0.027 | [2] 0 | [3] 0.07 | [4] 0.005 | [5] 0.048

MRPS36 (UniProt P82909)
inactive: [1] 0.018 | [2] 0.196 | [3] -0.077 | [4] 0.004 | [5] -0.034

MTA1 (UniProt Q13330)
inactive: [1] -0.005 | [3] -0.037 | [4] 0.016 | [5] -0.036
active: [2] -0.212

MTCH1 (UniProt Q9NZJ7)
inactive: [1] -0.021 | [2] 0.046 | [3] 0.012 | [4] -0.02 | [5] 0.044

MT-CYB (UniProt P00156)
inactive: [1] -0.064 | [2] 0.158 | [3] 0.031 | [4] 0.118 | [5] 0.174

The listing continues.

MRPS27 isoform 2 (UniProt Q92552)
inactive: [1] 0.046 | [2] -0.167 | [3] -0.015 | [4] 0.02 | [5] 0.006

MRPS33 (UniProt Q9Y291)
inactive: [1] 0.034 | [2] -0.047 | [3] -0.048 | [4] -0.061 | [5] -0.016
